Biological target: 3H-Diazepam binding, rat brain cortical fragments
Assay: 3H-Diazepam Binding Assay
Conditions: Tris buffer, assayed in triplicate, read-out: IC50 (nM), concentration required to inhibit binding by 50%
Procedure: Brief-Description: Rat brain cortical fragments are prepared and the binding procedures performed as described by Mohler and Okada (Life Sciences, 20, 2101, 1977) except that Tris buffer is substituted for Krebs buffer. Drugs are assayed in triplicate.
Measurements Made: Radioactivity is measured by liquid scintillation counting.

CN1C(=O)CN=C(c2ccccc2)c2cc(Cl)ccc21 [Diazepam]
IC50: 5 nM
